Measurements published in the supplement of paper PMC4604168 (melanoma cell lines).
This is one part of the list. Single values are uncertain, as repeats are few or missing.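 Imaging used 1,536-well plates; nuclei positive for cleaved PARP by antibody were divided by total DNA-stained nuclei to yield the apoptosis fraction. Doses for screening kept most cells viable, and cell lines differ markedly in resting and induced cleaved-PARP levels.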

What was measured:
Test in all cases: cleaved PARP positive nuclei fraction relative to DMSO control; melanoma cells; higher = more apoptosis
Details in all cases: library dose: low library concentration; 72 h
[1] = test system: 501Mel
[2] = test system: A101D
[3] = test system: A2058
[4] = test system: A375
[5] = test system: C32
[6] = test system: CBRC008 (line from a melanoma biopsy)
[7] = test system: CBRC013 (line from a melanoma biopsy)
[8] = test system: CBRC014 (line from a melanoma biopsy)
[9] = test system: CBRC016 (line from a melanoma biopsy)
[10] = test system: CBRC017 (line from a melanoma biopsy)
[11] = test system: COLO792
[12] = test system: COLO800
[13] = test system: COLO829
[14] = test system: G361
[15] = test system: IPC-298
[16] = test system: IST-MEL1
[17] = test system: LB2518-MEL
[18] = test system: LOXIMVI
[19] = test system: MEL-HO

SMILES	cleaved PARP positive nuclei fraction [1]	cleaved PARP positive nuclei fraction [2]	cleaved PARP positive nuclei fraction [3]	cleaved PARP positive nuclei fraction [4]	cleaved PARP positive nuclei fraction [5]	cleaved PARP positive nuclei fraction [6]	cleaved PARP positive nuclei fraction [7]	cleaved PARP positive nuclei fraction [8]	cleaved PARP positive nuclei fraction [9]	cleaved PARP positive nuclei fraction [10]	cleaved PARP positive nuclei fraction [11]	cleaved PARP positive nuclei fraction [12]	cleaved PARP positive nuclei fraction [13]	cleaved PARP positive nuclei fraction [14]	cleaved PARP positive nuclei fraction [15]	cleaved PARP positive nuclei fraction [16]	cleaved PARP positive nuclei fraction [17]	cleaved PARP positive nuclei fraction [18]	cleaved PARP positive nuclei fraction [19]
Cn1c(=O)n(-c2ccc(C(C)(C)C#N)cc2)c2c3cc(-c4cnc5ccccc5c4)ccc3ncc21 + C=CCn1c(=O)c2cnc(Nc3ccc(N4CCN(C)CC4)cc3)nc2n1-c1cccc(C(C)(C)O)n1 [MK1775] (first compound 0.004 µM, partner dose 0.02 µM)	159%	263%	52.4%	339%	44.9%	121%	149%	91.8%	164%	98.8%	163%	70.6%	139%	132%	102%	226%	180%	68.6%	71.5%
CCCS(=O)(=O)Nc1ccc(F)c(C(=O)c2c[nH]c3ncc(Cl)cc23)c1F + CC(C)(C)c1cnc(CSc2cnc(NC(=O)C3CCNCC3)s2)o1 [SNS-032] (first compound 0.08 µM, partner dose 0.01 µM)	169%	90.6%	59.1%	477%	85.5%	57.5%	93.1%	102%	68.6%	93.2%	68.5%	73.4%	168%	68.4%	74.6%	331%	77.5%	184%	39.9%
CN1CCN(c2ccc3nc(-c4c(N)c5c(F)cccc5[nH]c4=O)[nH]c3c2)CC1 [Dovitinib] + Cn1cncc1[C@@](N)(c1ccc(Cl)cc1)c1ccc2c(c1)c(-c1cccc(Cl)c1)cc(=O)n2C [tipifarnib] (first compound 0.1 µM, partner dose 0.01 µM)	235%	190%	223%	297%	139%	65%	119%	99.1%	263%	107%	162%	158%	132%	52.3%	52.1%	69.8%	59.5%	126%	141%
O=C(O)c1ccc2c(c1)nc(Nc1cccc(Cl)c1)c1ccncc12 + O=C(Nc1cccc(Cl)c1)Nc1ncc(CCNc2ncnc3ccsc23)s1 [SNS314] (first compound 0.4 µM, partner dose 0.0008 µM)	74.6%	67.4%	171%	84.5%	96.8%	111%	107%	120%	139%	168%	89.4%	198%	112%	120%	92.8%	140%	58.4%	38.9%	72.2%
Cc1cc(Nc2cc(N3CCN(C)CC3)nc(/C=C/c3ccccc3)n2)n[nH]1 + COc1cc2c(Oc3ccc4[nH]c(C)cc4c3F)ncnc2cc1OCCCN1CCCC1 [cediranib] (first compound 0.04 µM, partner dose 0.4 µM)	103%	85.7%	68.7%	205%	256%	47.6%	93%	99.2%	53.1%	79.9%	97.4%	57.8%	52%	145%	61.3%	105%	111%	55.2%	66.7%
O=C(O)c1ccc2c(c1)nc(Nc1cccc(Cl)c1)c1ccncc12 + CC1(C)NC(=O)N(c2ccc([N+](=O)[O-])c(C(F)(F)F)c2)C1=O [nilutamide] (first compound 0.4 µM, partner dose 1 µM)	96.4%	122%	149%	88%	171%	60.7%	115%	51.9%	108%	186%	113%	124%	123%	78.1%	49.6%	99%	46.4%	75.2%	178%
Nc1ccn([C@@H]2O[C@H](CO)[C@@H](O)C2(F)F)c(=O)n1 [gemcitabine] + OCCn1cc(-c2cnc3nnn(Cc4ccc5ncccc5c4)c3n2)cn1 [PF04217903] (first compound 0.0004 µM, partner dose 1 µM)	149%	108%	107%	112%	217%	123%	74.3%	235%	149%	104%	212%	178%	102%	174%	118%	346%	125%	37.5%	355%
CC(C)C[C@H](NC(=O)[C@H](Cc1ccccc1)NC(=O)c1cnccn1)B(O)O [Bortezomib] + O=C(O)c1ccc(-c2c[nH]c3ncc(-c4ccccc4)cc23)cc1C1CCCC1 [GSK650394] (first compound 0.001 µM, partner dose 0.16 µM)	174%	784%	56.1%	20%	96.3%	1010%	95%	251%	951%	424%	133%	60.6%	264%	2900%	245%	233%	232%	101%	75.9%
Nc1ncn([C@H]2C[C@H](O)[C@@H](CO)O2)c(=O)n1 [decitabine] + C[C@@H]1CCN(C(=O)CC#N)C[C@@H]1N(C)c1ncnc2[nH]ccc12 [CP690550] (first compound 0.1 µM, partner dose 1 µM)	91.6%	99.7%	150%	155%	119%	278%	103%	97.6%	125%	115%	116%	99.6%	283%	83.3%	136%	405%	174%	61.7%	304%
Nc1ncn([C@H]2C[C@H](O)[C@@H](CO)O2)c(=O)n1 [decitabine] + CN(C)S(=O)(=O)c1ccc2c(c1)/C(=C/c1cc3c([nH]1)CCCC3)C(=O)N2 [SU6656] (first compound 0.1 µM, partner dose 0.4 µM)	101%	213%	137%	124%	48.7%	182%	118%	99.1%	152%	88.2%	183%	118%	127%	192%	67.6%	121%	53.1%	19.3%	85.5%
O=C(O)[C@@H]1[O][Sb](=[O])([O][Sb]2(=[O])[O][C@H]([C@H](O)CO)[C@H](O)[C@H](C(=O)O)[O]2)[O][C@H]([C@H](O)CO)[C@@H]1O (some centres undefined) [stibogluconate] + CC1(C)NC(=O)N(c2ccc([N+](=O)[O-])c(C(F)(F)F)c2)C1=O [nilutamide] (first compound 2 µM, partner dose 1 µM)	86.5%	72%	91.2%	66.9%	92.1%	48.7%	107%	63.8%	112%	81.1%	174%	23.5%	87.1%	134%	46.7%	139%	177%	130%	85.7%
Cn1c(=O)n(-c2ccc(C(C)(C)C#N)cc2)c2c3cc(-c4cnc5ccccc5c4)ccc3ncc21 + COc1cc(Nc2ncc(F)c(Nc3ccc4c(n3)NC(=O)C(C)(C)O4)n2)cc(OC)c1OC [Tamatinib] (first compound 0.004 µM, partner dose 0.4 µM)	75.2%	75.2%	34.5%	75.5%	61.6%	305%	99.4%	187%	74.2%	221%	282%	25%	113%	155%	62.2%	121%	116%	48.5%	318%
CC(C)C[C@H](NC(=O)[C@H](Cc1ccccc1)NC(=O)c1cnccn1)B(O)O [Bortezomib] + NC(=O)Nc1cc(-c2cccc(F)c2)sc1C(=O)N[C@H]1CCCNC1 [AZD7762] (first compound 0.001 µM, partner dose 0.02 µM)	185%	234%	141%	131%	134%	1200%	82.3%	127%	732%	159%	58.5%	194%	181%	1330%	105%	30.3%	209%	25.7%	137%
CO[C@H]1C[C@@H]2CC[C@@H](C)[C@@](O)(O2)C(=O)C(=O)N2CCCC[C@H]2C(=O)O[C@H]([C@H](C)C[C@@H]2CC[C@@H](OCCO)[C@H](OC)C2)CC(=O)[C@H](C)/C=C(\C)[C@@H](O)[C@@H](OC)C(=O)[C@H](C)C[C@H](C)/C=C/C=C/C=C/1C [everolimus] + O=C(O)c1ccc(-c2c[nH]c3ncc(-c4ccccc4)cc23)cc1C1CCCC1 [GSK650394] (first compound 0.02 µM, partner dose 0.16 µM)	139%	48.2%	141%	357%	72.5%	233%	80.7%	97.6%	45.1%	140%	390%	150%	75.3%	138%	115%	76.5%	133%	72.8%	163%
CCCS(=O)(=O)Nc1ccc(F)c(C(=O)c2c[nH]c3ncc(Cl)cc23)c1F + O=C(O)c1ccc(-c2c[nH]c3ncc(-c4ccccc4)cc23)cc1C1CCCC1 [GSK650394] (first compound 0.08 µM, partner dose 0.16 µM)	88.6%	99.9%	78.3%	145%	83.5%	516%	80.7%	146%	41.7%	144%	169%	63.6%	133%	140%	96.5%	167%	175%	349%	41.5%
CO[C@H]1C[C@@H]2CC[C@@H](C)[C@@](O)(O2)C(=O)C(=O)N2CCCC[C@H]2C(=O)O[C@H]([C@H](C)C[C@@H]2CC[C@@H](OCCO)[C@H](OC)C2)CC(=O)[C@H](C)/C=C(\C)[C@@H](O)[C@@H](OC)C(=O)[C@H](C)C[C@H](C)/C=C/C=C/C=C/1C [everolimus] + Cn1cncc1[C@@](N)(c1ccc(Cl)cc1)c1ccc2c(c1)c(-c1cccc(Cl)c1)cc(=O)n2C [tipifarnib] (first compound 0.02 µM, partner dose 0.01 µM)	155%	104%	55.1%	226%	85.6%	147%	147%	106%	89.2%	104%	195%	61%	115%	153%	69.3%	107%	52.4%	83.1%	419%

Retrieved one by one from the list above (2):
SMILES	cleaved PARP positive nuclei fraction [1]	cleaved PARP positive nuclei fraction [2]	cleaved PARP positive nuclei fraction [3]	cleaved PARP positive nuclei fraction [4]	cleaved PARP positive nuclei fraction [5]	cleaved PARP positive nuclei fraction [6]	cleaved PARP positive nuclei fraction [7]	cleaved PARP positive nuclei fraction [8]	cleaved PARP positive nuclei fraction [9]	cleaved PARP positive nuclei fraction [10]	cleaved PARP positive nuclei fraction [11]	cleaved PARP positive nuclei fraction [12]	cleaved PARP positive nuclei fraction [13]	cleaved PARP positive nuclei fraction [14]	cleaved PARP positive nuclei fraction [15]	cleaved PARP positive nuclei fraction [16]	cleaved PARP positive nuclei fraction [17]	cleaved PARP positive nuclei fraction [18]	cleaved PARP positive nuclei fraction [19]
CO[C@H]1C[C@@H]2CC[C@@H](C)[C@@](O)(O2)C(=O)C(=O)N2CCCC[C@H]2C(=O)O[C@H]([C@H](C)C[C@@H]2CC[C@@H](OCCO)[C@H](OC)C2)CC(=O)[C@H](C)/C=C(\C)[C@@H](O)[C@@H](OC)C(=O)[C@H](C)C[C@H](C)/C=C/C=C/C=C/1C [everolimus] + Cn1cncc1[C@@](N)(c1ccc(Cl)cc1)c1ccc2c(c1)c(-c1cccc(Cl)c1)cc(=O)n2C [tipifarnib] (first compound 0.02 µM, partner dose 0.01 µM)	155%	104%	55.1%	226%	85.6%	147%	147%	106%	89.2%	104%	195%	61%	115%	153%	69.3%	107%	52.4%	83.1%	419%
Cn1c(=O)n(-c2ccc(C(C)(C)C#N)cc2)c2c3cc(-c4cnc5ccccc5c4)ccc3ncc21 + COc1cc(Nc2ncc(F)c(Nc3ccc4c(n3)NC(=O)C(C)(C)O4)n2)cc(OC)c1OC [Tamatinib] (first compound 0.004 µM, partner dose 0.4 µM)	75.2%	75.2%	34.5%	75.5%	61.6%	305%	99.4%	187%	74.2%	221%	282%	25%	113%	155%	62.2%	121%	116%	48.5%	318%
